PubChem BioAssay AID652243, Drosophila RNAi Screening Center – 2013
In all, the deposit lists about 24,000 reagents; shown is an unselected part of those that have a named target and a result. Over the whole deposit, 246 (1%) are marked active. 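Plates not normalised; calls are printed but the firefly/Renilla ratio behind them is not deposited; fold cut for lowering reported inconsistently.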 Raw values vary from plate to plate and are shown uncorrected. Names joined by + are all predicted targets of the reagent. No sequences are given here. Not stated in the record: the amount of reagent.

- Screen: 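Fly regulators of androgen-dependent reporter output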 (primary screen)
- System: Drosophila S2R+ cells
- Reagent: long dsRNA against Drosophila genes
- Duration: 72 h (48 h, then 24 h hormone)
- Challenge: synthetic androgen R1881 at 10 nM for 24 h
- Read-out: 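Firefly light from an androgen-responsive reporter and Renilla control light per well, raw and unnormalised, for each of two replicates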
- Reading the numbers: firefly reporter light: higher = more light from androgen-responsive reporter; Renilla control light: higher = more constitutive control signal (cell number, transfection)
- Rule for the call: 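Hit when the log firefly-to-Renilla ratio dropped or increased by a fixed fold versus the mean of GFP or LacZ controls across duplicate plates; lowering cut given as 1.5 and as 3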
- Meaning of the calls: active = hit: reporter lowered or raised; inactive = no hit

{"predicted target":"aralar1","DRSC id":"DRSC13987","firefly reporter light, replicate 1":2.08e6,"firefly reporter light, replicate 2":1.42e6,"Renilla control light, replicate 1":3.71e6,"Renilla control light, replicate 2":1.67e6,"outcome":"inactive"}
{"predicted target":"aralar1","DRSC id":"DRSC16901","firefly reporter light, replicate 1":1.23e5,"firefly reporter light, replicate 2":89990,"Renilla control light, replicate 1":5.09e5,"Renilla control light, replicate 2":4.41e5,"outcome":"inactive"}
{"predicted target":"aralar1","DRSC id":"DRSC29693","firefly reporter light, replicate 1":4.60e5,"firefly reporter light, replicate 2":4.01e5,"Renilla control light, replicate 1":9.84e5,"Renilla control light, replicate 2":1.46e6,"outcome":"inactive"}
{"predicted target":"CanA-14F","DRSC id":"DRSC23296","firefly reporter light, replicate 1":9.59e5,"firefly reporter light, replicate 2":8.17e5,"Renilla control light, replicate 1":1.23e6,"Renilla control light, replicate 2":9.56e5,"outcome":"inactive"}
{"predicted target":"CG33461","DRSC id":"DRSC22892","firefly reporter light, replicate 1":6.92e5,"firefly reporter light, replicate 2":9.19e5,"Renilla control light, replicate 1":1.52e6,"Renilla control light, replicate 2":2.37e6,"outcome":"inactive"}
{"predicted target":"CG33461","DRSC id":"DRSC26007","firefly reporter light, replicate 1":4.13e5,"firefly reporter light, replicate 2":3.79e5,"Renilla control light, replicate 1":6.75e5,"Renilla control light, replicate 2":5.88e5,"outcome":"inactive"}
{"predicted target":"CG34202","DRSC id":"DRSC38630","firefly reporter light, replicate 1":6.89e5,"firefly reporter light, replicate 2":7.71e5,"Renilla control light, replicate 1":1.90e6,"Renilla control light, replicate 2":2.11e6,"outcome":"inactive"}
{"predicted target":"robls54B","DRSC id":"DRSC38867","firefly reporter light, replicate 1":9.73e5,"firefly reporter light, replicate 2":8.69e5,"Renilla control light, replicate 1":1.99e6,"Renilla control light, replicate 2":1.77e6,"outcome":"inactive"}
{"predicted target":"PGRP-SC2","DRSC id":"DRSC06481","firefly reporter light, replicate 1":3.40e5,"firefly reporter light, replicate 2":2.79e5,"Renilla control light, replicate 1":2.20e6,"Renilla control light, replicate 2":1.77e6,"outcome":"inactive"}
{"predicted target":"PGRP-SC2","DRSC id":"DRSC25449","firefly reporter light, replicate 1":3.46e5,"firefly reporter light, replicate 2":4.77e5,"Renilla control light, replicate 1":6.84e5,"Renilla control light, replicate 2":6.86e5,"outcome":"inactive"}
{"predicted target":"CG3713","DRSC id":"DRSC18648","firefly reporter light, replicate 1":2.95e5,"firefly reporter light, replicate 2":3.43e5,"Renilla control light, replicate 1":3.11e6,"Renilla control light, replicate 2":2.71e6,"outcome":"inactive"}
{"predicted target":"drpr","DRSC id":"DRSC08143","firefly reporter light, replicate 1":92665,"firefly reporter light, replicate 2":89705,"Renilla control light, replicate 1":9.08e5,"Renilla control light, replicate 2":9.09e5,"outcome":"inactive"}
{"predicted target":"drpr","DRSC id":"DRSC08525","firefly reporter light, replicate 1":71161,"firefly reporter light, replicate 2":71577,"Renilla control light, replicate 1":9.21e5,"Renilla control light, replicate 2":1.09e6,"outcome":"inactive"}

Look-ups from the list:
Under “Renilla control light, replicate 2”, CG33461 [DRSC26007] shows 5.88e5
Result of drpr [DRSC08525] under “firefly reporter light, replicate 2”: 71577

Next reagents follow.
{"predicted target":"CG7214","DRSC id":"DRSC03028","firefly reporter light, replicate 1":6.45e5,"firefly reporter light, replicate 2":9.08e5,"Renilla control light, replicate 1":1.80e6,"Renilla control light, replicate 2":2.46e6,"outcome":"inactive"}
{"predicted target":"CG7214","DRSC id":"DRSC21869","firefly reporter light, replicate 1":9.85e5,"firefly reporter light, replicate 2":1.06e6,"Renilla control light, replicate 1":1.48e6,"Renilla control light, replicate 2":1.39e6,"outcome":"inactive"}
{"predicted target":"CG7214","DRSC id":"DRSC29482","firefly reporter light, replicate 1":5.54e5,"firefly reporter light, replicate 2":5.25e5,"Renilla control light, replicate 1":1.06e6,"Renilla control light, replicate 2":1.06e6,"outcome":"inactive"}
{"predicted target":"CG32147","DRSC id":"DRSC09346","firefly reporter light, replicate 1":1.93e5,"firefly reporter light, replicate 2":50001,"Renilla control light, replicate 1":4.25e5,"Renilla control light, replicate 2":2.14e5,"outcome":"inactive"}
{"predicted target":"CG32147","DRSC id":"DRSC24225","firefly reporter light, replicate 1":7.49e5,"firefly reporter light, replicate 2":7.47e5,"Renilla control light, replicate 1":8.68e5,"Renilla control light, replicate 2":9.03e5,"outcome":"inactive"}
{"predicted target":"CG4456 + Hsp22","DRSC id":"DRSC11187","firefly reporter light, replicate 1":2.67e5,"firefly reporter light, replicate 2":1.43e5,"Renilla control light, replicate 1":2.82e6,"Renilla control light, replicate 2":1.30e6,"outcome":"inactive"}
{"predicted target":"CG4456 + Hsp22","DRSC id":"DRSC11192","firefly reporter light, replicate 1":8.31e5,"firefly reporter light, replicate 2":5.14e5,"Renilla control light, replicate 1":2.22e6,"Renilla control light, replicate 2":1.83e6,"outcome":"inactive"}
{"predicted target":"dy","DRSC id":"DRSC20325","firefly reporter light, replicate 1":3.77e5,"firefly reporter light, replicate 2":3.66e5,"Renilla control light, replicate 1":4.03e6,"Renilla control light, replicate 2":3.57e6,"outcome":"inactive"}
{"predicted target":"dy","DRSC id":"DRSC25539","firefly reporter light, replicate 1":5.42e5,"firefly reporter light, replicate 2":4.42e5,"Renilla control light, replicate 1":4.82e5,"Renilla control light, replicate 2":5.57e5,"outcome":"inactive"}
{"predicted target":"CG30154","DRSC id":"DRSC05889","firefly reporter light, replicate 1":1.03e5,"firefly reporter light, replicate 2":1.80e5,"Renilla control light, replicate 1":3.76e5,"Renilla control light, replicate 2":5.67e5,"outcome":"inactive"}
{"predicted target":"CG30154","DRSC id":"DRSC26172","firefly reporter light, replicate 1":3.59e5,"firefly reporter light, replicate 2":3.00e5,"Renilla control light, replicate 1":7.99e5,"Renilla control light, replicate 2":7.68e5,"outcome":"inactive"}
{"predicted target":"CG14194","DRSC id":"DRSC19549","firefly reporter light, replicate 1":1.48e5,"firefly reporter light, replicate 2":1.04e5,"Renilla control light, replicate 1":6.09e5,"Renilla control light, replicate 2":4.08e5,"outcome":"inactive"}
{"predicted target":"Dscam1","DRSC id":"DRSC07407","firefly reporter light, replicate 1":2.33e5,"firefly reporter light, replicate 2":2.93e5,"Renilla control light, replicate 1":1.48e6,"Renilla control light, replicate 2":1.41e6,"outcome":"inactive"}
{"predicted target":"Dscam1","DRSC id":"DRSC21562","firefly reporter light, replicate 1":8.26e5,"firefly reporter light, replicate 2":7.00e5,"Renilla control light, replicate 1":9.42e5,"Renilla control light, replicate 2":7.00e5,"outcome":"inactive"}
{"predicted target":"Dscam1","DRSC id":"DRSC22383","firefly reporter light, replicate 1":6.47e5,"firefly reporter light, replicate 2":6.48e5,"Renilla control light, replicate 1":2.57e6,"Renilla control light, replicate 2":2.53e6,"outcome":"inactive"}
{"predicted target":"Dscam1","DRSC id":"DRSC29101","firefly reporter light, replicate 1":4.24e5,"firefly reporter light, replicate 2":4.77e5,"Renilla control light, replicate 1":1.08e6,"Renilla control light, replicate 2":1.04e6,"outcome":"inactive"}
